Measured data: PubChem BioAssay AID504795 (Drosophila RNAi Screening Center, 2011)
The reagents shown are a selection, not the whole library. 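Every listed dsRNA shows some phenotype; how reagents were selected for listing is not stated.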 Names joined by + are all predicted targets of the reagent. No sequences are given here.

Purpose: 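Genes required for normal axon extension and glial cell shape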 (primary screen)
System: primary Drosophila neurons and glia
Knock-down reagent: long dsRNA against Drosophila genes, 250 ng dsRNA per well
Time to read-out: one week
Read-out: 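Descriptive morphology terms assigned by visual inspection of live automated images of GFP-marked cells, taken one week after adding 250 ng dsRNA per well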

Silencing of RpL22-like (Ribosomal protein L22-like) [DRSC04582] resulted in: phenotype seen, replicate 1 = axon bundles split apart. With knock-down of ftz-f1 (ftz transcription factor 1) [DRSC11347], the screen gave phenotype seen, replicate 1 = abnormal cell clusters. For gudu [DRSC02820], the values are phenotype seen, replicate 1 = cell fragments present. For SCCRO3 (Squamous cell carcinoma-related oncogene 3) [DRSC06359], the entry reads phenotype seen, replicate 1 = abnormal cell clusters. Knock-down of ClC-b (Chloride channel-b) [DRSC07220] gave: phenotype seen, replicate 1 = axon bundles split apart. otp (orthopedia) [DRSC04050] showed phenotype seen, replicate 1 = too many neurite branches.

For otp (orthopedia) [DRSC04707], the values are phenotype seen, replicate 1 = sheet-like cell extensions. RpL30 (Ribosomal protein L30) [DRSC02087] scored phenotype seen, replicate 1 = too many neurite branches. Depletion of CG17826 [DRSC10289] resulted in: phenotype seen, replicate 1 = too many neurite branches; phenotype seen, replicate 2 = abnormal cell clusters. After knock-down of Obp83g (Odorant-binding protein 83g) [DRSC12269], the record shows phenotype seen, replicate 1 = axon bundles split apart. Knock-down of RpS19a (Ribosomal protein S19a) [DRSC20281] resulted in: phenotype seen, replicate 1 = too many neurite branches. Jupiter [DRSC15205] gave phenotype seen, replicate 1 = beaded; swollen axons.

Against Ccdc58 + CG34116 [DRSC10105], the values are phenotype seen, replicate 1 = fewer cells. After knock-down of Muc12Ea (Mucin 12Ea) [DRSC19937] the results were phenotype seen, replicate 1 = too many neurite branches. With knock-down of alphaCOP (Coat Protein (coatomer) alpha) [DRSC08706], the screen gave phenotype seen, replicate 1 = cell fragments present. With knock-down of CG4768 [DRSC19917] the results were phenotype seen, replicate 1 = axon bundles split apart. Depletion of slp2 (sloppy paired 2) [DRSC00836] gave: phenotype seen, replicate 1 = beaded; swollen axons.

Entries listed so far whose gene name starts with C or c (4):
ClC-b (Chloride channel-b) [DRSC07220] → phenotype seen, replicate 1: axon bundles split apart
CG17826 [DRSC10289] → phenotype seen, replicate 1: too many neurite branches; phenotype seen, replicate 2: abnormal cell clusters
Ccdc58 + CG34116 [DRSC10105] → phenotype seen, replicate 1: fewer cells
CG4768 [DRSC19917] → phenotype seen, replicate 1: axon bundles split apart

The list goes on.
After knock-down of Daxx (Daxx-like protein) [DRSC03255], the screen gave phenotype seen, replicate 1 = too many neurite branches. Hug (Hugin) [DRSC16969] scored phenotype seen, replicate 1 = too many neurite branches. CG13022 [DRSC09902] scored phenotype seen, replicate 1 = axon bundles split apart. Knock-down of CG13449 [DRSC09996] came out at: phenotype seen, replicate 1 = abnormal cell clusters. After knock-down of B-H2 (BarH2) [DRSC19335] the results were phenotype seen, replicate 1 = abnormal cell clusters. Depletion of Sox21b [DRSC22788] came out at: phenotype seen, replicate 1 = reduced axon outgrowth.

CG10384 [DRSC03933] showed phenotype seen, replicate 1 = too many neurite branches. CG8136 [DRSC16385] scored phenotype seen, replicate 1 = reduced axon outgrowth. With knock-down of CG14185 [DRSC10184], the screen gave phenotype seen, replicate 1 = reduced axon outgrowth. After knock-down of peg (pegasus) [DRSC15216] the results were phenotype seen, replicate 1 = too many neurite branches. Depletion of betaTub97EF (beta-Tubulin at 97EF) [DRSC15666] gave: phenotype seen, replicate 1 = sheet-like cell extensions. With knock-down of betaTub97EF (beta-Tubulin at 97EF) [DRSC15667], the record shows phenotype seen, replicate 1 = axon bundles split apart.

With knock-down of Mdr50 (Multi drug resistance 50) [DRSC07467], the screen gave phenotype seen, replicate 1 = fewer cells. CG13995 [DRSC00907] gave phenotype seen, replicate 1 = sheet-like cell extensions. CG42700 [DRSC06292] scored phenotype seen, replicate 1 = too many neurite branches. Silencing of L (retired record) [DRSC05966] came out at: phenotype seen, replicate 1 = too many neurite branches. With knock-down of Cpr62Bc (Cuticular protein 62Bc) [DRSC08545], the screen gave phenotype seen, replicate 1 = axon bundles split apart. Silencing of CG8475 [DRSC03091] resulted in: phenotype seen, replicate 1 = sheet-like cell extensions.

After knock-down of CG12689 [DRSC17879], the screen gave phenotype seen, replicate 1 = axon bundles split apart. Whamy (WHAMM and JMY related) [DRSC14574] scored phenotype seen, replicate 1 = too many neurite branches. After knock-down of St4 (Sulfotransferase 4) [DRSC07008], the screen gave phenotype seen, replicate 1 = axon bundles split apart. ND-51L2 (NADH dehydrogenase (ubiquinone) 51 kDa subunit-like 2) [DRSC07080] gave phenotype seen, replicate 1 = too many neurite branches. CG31126 [DRSC14623] showed phenotype seen, replicate 1 = axon bundles split apart. With knock-down of sm (smooth) [DRSC05795] the results were phenotype seen, replicate 1 = axon bundles split apart.

Silencing of BEAF-32 + CG42254 (retired record) [DRSC05503] came out at: phenotype seen, replicate 1 = axon bundles split apart. For CG11398 [DRSC18625], the values are phenotype seen, replicate 1 = too many neurite branches. Wdr62 (WD repeat domain 62) [DRSC00701] gave phenotype seen, replicate 1 = axon bundles split apart. With knock-down of CG17681 [DRSC02632], the screen gave phenotype seen, replicate 1 = axon bundles split apart. After knock-down of pyd (polychaetoid) [DRSC14445] the results were phenotype seen, replicate 1 = axon bundles split apart. Against pyd (polychaetoid) [DRSC14509], the values are phenotype seen, replicate 1 = abnormal cell clusters; phenotype seen, replicate 2 = too many neurite branches.

Silencing of pyd (polychaetoid) [DRSC16547] resulted in: phenotype seen, replicate 1 = abnormal cell clusters. After knock-down of pyd (polychaetoid) [DRSC17041] the results were phenotype seen, replicate 1 = too many neurite branches.
